Experimental data as given in patent publication US11759460B2, “Method of local antibiotic treatment of infective endocarditis” (priority 2020, dated 2023).
At least one structure is not confirmed: it was looked up by name or label, or the drawing left a doubt.

Key:
E. faecalis biofilms = assay: Single antibiotic treatment of E. faecalis biofilms (SGT method); assay type: cell-based, Enterococcus faecalis
Description: (§1) FIGS. 1A and 1B illustrates effects of different antibiotics tested in a dose-dependent manner against bacterial biofilms of different isolates of S. aureus and E. faecalis using only one antibiotic per treatment to screen the effect of the single antibiotics against bacterial biofilms. The graphs show the decadic logarithm of the colony forming units (log10 CFU) of either S. aureus or E. faecalis on the ordinate in relation to the concentration of various antibiotics on the abscissa. Data points belonging to one antibiotic were connected by lines for clarity. […]
(§2) FIGS. 1A and 1B illustrate the effect of different antibiotics tested in a dose-depended manner against bacterial biofilms of different bacterial isolates of S. aureus and E. faecalis using only one antibiotic per treatment to screen the effect of the single antibiotics against bacterial biofilms. […] The number of bacteria in each well after the 24-hour treatment was determined via so called start-growth-time (SGT) method, where the bacterial regrowth of the dispersed bacteria from the biofilms was measured in an incubation chamber of a plate reader over time. […]

[1] = Unidirectional diffusion in collagen matrix; assay type: physicochemical; conditions: phosphate-buffered collagen matrix, start 1000 mg/L, 24 h
S. aureus biofilms = assay: Single antibiotic treatment of S. aureus biofilms (SGT method); assay type: cell-based, Staphylococcus aureus
Description: as §1, §2

[2] = Release kinetics of antibiotics from polymeric matrices; assay type: physicochemical

Structure (SMILES): CO[C@H]1/C=C/O[C@@]2(C)Oc3c(C)c(O)c4c(O)c(c(/C=N/N5CCN(C)CC5)c(O)c4c3C2=O)NC(=O)/C(C)=C\C=C\[C@H](C)[C@H](O)[C@@H](C)[C@@H](O)[C@@H](C)[C@H](OC(C)=O)[C@@H]1C [rifampicin]
- suppression of bacteria in biofilms (in words) (E. faecalis biofilms): can suppress the bacteria sufficiently
- diffusion into matrix, comparison (in words) [1]: slightly higher
- diffusion into matrix, comparison (in words) ([1]; listed as Rifampicin): diffuses slightly faster
- suppression of bacteria in biofilms (in words) (S. aureus biofilms): can suppress the bacteria sufficiently
- time within which 80% is released ([2]; prophylactic long-term release, rifampicin 20% by weight in polydioxanone X206S (FIG. 12)): up to 4 months
- time within which 80% is released ([2]; therapeutic short-term release, rifampicin 20% by weight in polyester PLC7015 (FIG. 8)): ≤ 14 days

Structure (SMILES): CN[C@H]1C(=O)N[C@@H]2Cc3ccc(cc3)Oc3cc4cc(c3O[C@@H]3O[C@H](C(=O)O)[C@@H](O)[C@H](O)[C@H]3NC(=O)CCCCCCCCC(C)C)Oc3ccc(cc3Cl)[C@@H](O)[C@@H]3NC(=O)[C@H](NC(=O)[C@@H]4NC(=O)[C@@H](NC2=O)c2cc(cc(O)c2Cl)Oc2cc1ccc2O)c1ccc(O)c(c1)-c1c(O[C@H]2O[C@H](CO)[C@@H](O)[C@H](O)[C@@H]2O)cc(O)cc1[C@@H](C(=O)NCCCN(C)C)NC3=O [dalbavancin]
- suppression of bacteria in biofilms (in words) (E. faecalis biofilms): can suppress the bacteria sufficiently
- suppression of bacteria in biofilms (in words) (S. aureus biofilms): can suppress the bacteria sufficiently
